From article PMC3823855
No constants are given. Whether binding was seen depends on the method and setting. In cells and extracts the contact can be indirect. Some results given as binding are weak or reduced against the parent protein; the word gives no strength.

Target: CREB-binding protein (CBP) (mouse (endogenous in CATH.a)), P45481
Assay: co-IP; 100 µg pre-cleared CATH.a total lysate with anti-CBP, anti-CREB or anti-p65 NF-κB antibody and Protein G beads, overnight at 4°C; washes with 50 mM Tris-HCl pH 7.5, 150 mM NaCl, 1% Tween-20, 0.05% Na deoxycholate and 50 mM Tris-HCl pH 7.5, 75 mM NaCl, 0.1% Tween-20; western blot; cells with no ligand, Ang II, Los, Ang II+Los
Conditions: remark: other sources report otherwise

binding: binds
B1: p65 NF-κB, Q04207 1-549 (protein)
chain: MDDLFPLIFPSEPAQASGPYVEIIEQPKQRGMRFRYKCEGRSAGSIPGERSTDTTKTHPTIKINGYTGPGTVRISLVTKDPPHRPHPHELVGKDCRDGYYEADLCPDRSIHSFQNLGIQCVKKRDLEQAISQRIQTNNNPFHVPIEEQRGDYDLNAVRLCFQVTVRDPAGRPLLLTPVLSHPIFDNRAPNTAELKICRVNRNSGSCLGGDEIFLLCDKVQKEDIEVYFTGPGWEARGSFSQADVHRQVAIVFRTPPYADPSLQAPVRVSMQLRRPSDRELSEPMEFQYLPDTDDRHRIEEKRKRTYETFKSIMKKSPFNGPTEPRPPTRRIAVPTRNSTSVPKPAPQPYTFPASLSTINFDEFSPMLLPSGQISNQALALAPSSAPVLAQTMVPSSAMVPLAQPPAPAPVLTPGPPQSLSAPVPKSTQAGEGTLSEALLHLQFDADEDLGALLGNSTDPGVFTDLASVDNSEFQQLLNQGVSMSHSTAEPMLMEYPEAITRLVTGSQRPPDPAPTPLGTSGLPNGLSGDEDFSSIADMDFSALLSQISS
